# Data as given in PubChem BioAssay AID1259424 (University of Nebraska Medical Center, 2018)
# Aim: 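Seek colon cancer survival genes behaving like KSR1, using a six-gene signature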 (primary screen)
# Cell system: human HCT116 colon cancer cells
# Knock-down reagent: siRNA pool against human genes, 50 nM
# Measured: 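Log2 levels of six mRNAs (branched-DNA multiplex), adjusted by two reference genes and the non-targeting median, then scored against the average KSR1 knockdown pattern as Pearson r and euclidean distance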
# Reading the numbers: mean correlation with KSR1 profile and KSR1 correlation: higher = expression change more like KSR1 knockdown; mean distance from KSR1 profile: higher = expression change less like KSR1 knockdown
# The deposit covers about 14,000 reagents; shown is a part drawn at random. 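Higher correlation or smaller distance means closer resemblance to KSR1 loss; control wells, including KSR1 knockdowns, recur on many plates.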 Further read-outs or replicates are left out here. No sequences are given here. Not given: the time to read-out.
gene,mean correlation with KSR1 profile,mean distance from KSR1 profile,"KSR1 correlation, replicate 1"
MRPL58 (GeneID 3396),-0.527,2.88,0.258
CEP162 (GeneID 22832),-0.00624,1.76,0.176
TAF5L (GeneID 27097),-0.242,1.89,-0.137
SH3YL1 (GeneID 26751),0.376,1.12,0.0547
MID1 (GeneID 4281),-0.442,1.91,-0.383
CKAP5 (GeneID 9793),-0.707,1.93,-0.881
NIPBL (GeneID 25836),0.0521,3.37,0.0732
ZNF74 (GeneID 7625),0.0452,2.02,0.0881
CLIC4 (GeneID 25932),-0.387,3.2,-0.259
USF1 (GeneID 7391),0.353,2.34,0.362
GSDME (GeneID 1687),-0.326,1.81,-0.206
CRTAC1 (GeneID 55118),-0.536,3.14,-0.496
PDE5A (GeneID 8654),0.269,1.59,-0.0654
ABHD17A (GeneID 81926),0.081,1.85,-0.0494
MLH1 (GeneID 4292),0.174,1.68,-0.187
CDKN1B (GeneID 1027),0.762,1.7,0.701
N4BP3 (GeneID 23138),0.115,4.64,0.0642
MBOAT7 (GeneID 79143),0.235,3.84,0.193
ZNF408 (GeneID 79797),0.308,2.25,0.289
SEC61A2 (GeneID 55176),0.608,1.64,0.586
TYMS (GeneID 7298),-0.503,2.82,-0.481
MYDGF (GeneID 56005),-0.209,3.11,0.0815
TBC1D30 (GeneID 23329),-0.437,2.63,-0.272
SSBP1 (GeneID 6742),0.72,0.754,0.223
SLC18A1 (GeneID 6570),0.0605,1.88,0.163
TMC8 (GeneID 147138),0.0345,3.01,0.0131
SLC24A1 (GeneID 9187),-0.277,1.94,-0.27
SH2D1A (GeneID 4068),-0.367,3.1,-0.379
TENT5C (GeneID 54855),0.159,2.12,0.149
MRGPRF (GeneID 116535),-0.0397,3.18,0.0362
TMEM184C (GeneID 55751),-0.0809,1.4,-0.408
IGSF1 (GeneID 3547),-0.525,2.02,-0.61
TBC1D15 (GeneID 64786),0.104,1.7,-0.192
COL4A5 (GeneID 1287),-0.606,2.92,-0.421
PIAS4 (GeneID 51588),-0.013,2.11,0.154
RUNX3 (GeneID 864),0.439,1.36,0.557
POU3F2 (GeneID 5454),0.635,3.45,0.815
HIF1AN (GeneID 55662),0.165,2.76,0.318
COL27A1 (GeneID 85301),0.275,2.39,0.263
ZMYM1 (GeneID 79830),0.436,1.66,0.511
BAGE (GeneID 574),0.126,1.9,0.166
SIN3B (GeneID 23309),-0.563,3.49,-0.565
CST1 (GeneID 1469),0.26,3.79,0.279
RAB11A (GeneID 8766),0.25,1.65,0.261
R3HDM2 (GeneID 22864),-0.417,3.03,-0.381
CENPO (GeneID 79172),0.367,2.43,-0.226
IER3 (GeneID 8870),0.0311,3.24,-0.22
RIPOR2 (GeneID 9750),-0.406,2.4,-0.351
DIABLO (GeneID 56616),-0.733,3,-0.644
CARS2 (GeneID 79587),0.952,0.53,0.96

Look-ups from the list:
Result of COL4A5 (GeneID 1287) in “mean distance from KSR1 profile”: 2.92
Value of CST1 (GeneID 1469) under “mean correlation with KSR1 profile”: 0.26
SIN3B (GeneID 23309), mean distance from KSR1 profile = 3.49
Result for SSBP1 (GeneID 6742) in “KSR1 correlation, replicate 1”: 0.223
Result for MBOAT7 (GeneID 79143) under “KSR1 correlation, replicate 1”: 0.193
TBC1D30 (GeneID 23329), KSR1 correlation, replicate 1 → -0.272
